Screening data, single-dose tests

The values are deposited in ChEMBL (CHEMBL3988442, “University of Dundee, Small-Polar-MMV Screening Library” (2021)).

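Whole-parasite assay of Trypanosoma brucei over 72 hours; the read-out is not stated. Concentration: 30 µM. Higher reads as stronger inhibition (inferred: compounds with an IC50 in retests scored well above the rest). Values scatter widely below zero; nearly all retest evidence comes from the higher of the two concentrations used. Of about 64,000 compounds tested this way, about 940 (1.5%) reached 50% or more in at least one test.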

Each number is a percent effect as filed. How 0% and 100% were set is not recorded. Most values in the screen are low, and negative values occur. The compounds are a random part of those screened.

* Cc1csc(CNC(=O)NCC(C)Cn2nc(C)cc2C)n1 (stereo not drawn) | 1.534%
* CN(C)C1CCCN(C(=O)NCCC(C)(C)C)C1 (stereo not drawn) | -60.01%
* Cc1nc(N)nc(C)c1CC(=O)N1CCC2(CC1)OCCCC2O (stereo not drawn) | -55.8%
* [H][C@@]12CCN(C(=O)Cc3cccc(OC)c3)[C@]1([H])CCC(=O)N2CC | -32.74%
* COc1ccc(-c2cnc(N)nc2C2CCCNC2)cc1.Cl (stereo not drawn) | 7.563%
* O=C(O)C(F)(F)F.O=C(O)C(F)(F)F.[H][C@@]12OCCN(Cc3scnc3C)[C@@]1([H])CC[C@H]2Oc1ccccn1 | -9.878%
* CCN1CCCC(CNC(=O)C2(c3cc(C)cc(C)c3)CCC2)C1 (stereo not drawn) | -9.235%
* CC1CCCCN1C(=O)c1nc2c(n1C(C)C)CCN(C)C2.O=C(O)C(F)(F)F (stereo not drawn) | -76.47%
* Cc1cc(NC(=O)NC(C)CN2CCN(c3ccccc3)CC2)on1 (stereo not drawn) | -22.66%
* O=C(O)C(F)(F)F.[H][C@@]12COC[C@]1(CNC(=O)c1ccccc1)CN(CC1CCOCC1)C2 | -21.88%
* Cn1ccnc1CNCCNc1ncc(Cl)cc1Cl | -16.72%
* COc1cccc(CNc2c(C)nn(C(C)C)c2C)c1.Cl | 9.849%
* CN(CC(=O)Nc1ccccc1)C(=O)CN(C)c1ccc(Cl)cn1 | -56.05%
* COc1cccc(CNC(=O)CCC2=Nc3ccccc3S(=O)(=O)N2)c1 | 9.218%
* COc1cccc(OCC2CCCN(C(=O)CCCn3cccn3)C2)c1 (stereo not drawn) | -42.38%
* CCCc1cc(N2CCCC2Cn2nc(C)cc2C)n2ncnc2n1 (stereo not drawn) | -39.63%
* CN1CCN(C)C2(CCN(Cc3ccc(C4CCCO4)s3)CC2)C1 (stereo not drawn) | 2.868%
* O=C(O)COc1ccccc1CN1CCCC1c1cnccn1 (stereo not drawn) | 19.28%
* COc1ccccc1C(C)N1CCN(S(C)(=O)=O)CC1 (stereo not drawn) | -18.94%
* CCN1CCN(C)C(=O)C12CCN(Cc1csc(C)n1)CC2.O=C(O)C(F)(F)F | -11.12%
* O=C(O)C(F)(F)F.O=C(O)C(F)(F)F.[H][C@]12CCN(c3ncccn3)CC[C@@]1([H])S(=O)(=O)CCN2Cc1cccnc1 | -21.4%
* CN(C(=O)CN1CCC(NC(=O)c2cccs2)CC1)c1ccccc1 | 15.83%
* Cc1ccc2nc(-c3cnc(N)nc3)cc(C(=O)N(C)C)c2c1 | -59.21%
* [H][C@@]12CCC(=O)N(CCC3=CCCCC3)[C@]1([H])CCN(S(C)(=O)=O)C2 | -41.69%
* Cc1ccc(C2(O)CCN(Cc3nc(C)n4ccccc34)CC2)nc1 | 6.672%
* CCCc1n[nH]cc1C(=O)N1CCCC(c2nccn2CC2CC2)C1 (stereo not drawn) | -60.19%
* COc1ccccc1-c1ccc(C2CCCN(C(C)=O)C2)nc1 (stereo not drawn) | 21.38%
* O=C(O)C(F)(F)F.O=C(O)C(F)(F)F.O=C(O)C(F)(F)F.[H][C@@]12CN(CCOC)C[C@]1([H])[C@@H](OC)CCN2Cc1cccc(C)n1 | 17.59%
* Cc1nccn1CCCNc1ncccc1C#N | -19.17%
* CC(C)NCC1OCCc2cn(C)nc21.O=C(O)C(F)(F)F (stereo not drawn) | -3.961%
* O=C1N(CC2CCC2)CCCC12CCN(S(=O)(=O)c1cccnc1)C2 (stereo not drawn) | -2.941%
* Cc1cc(C)n(C2CCN(S(=O)(=O)N3CCC(C)CC3)CC2)n1 | -3.385%
* Cc1n[nH]c(C)c1CC(=O)N1CCC(O)(CN2CCOCC2)C1 (stereo not drawn) | -31.38%
* COC(=O)N1CCN(Cc2ccccc2C(C)(C)C#N)CC1 | -24.24%
* CNC(=O)C1Cn2ccnc2C2(CCN(Cc3c(C)noc3C)CC2)O1 (stereo not drawn) | -238.1%
* O=C(O)C(F)(F)F.O=C(O)C(F)(F)F.[H][C@@]12OCCN(Cc3nccs3)[C@@]1([H])CC[C@@H]2OCc1ccncc1 | -67.24%
* O=S(=O)(NCCCn1cncn1)c1ccc2c(c1)CCC2 | -50.56%
* O=C(c1ccco1)N1CCc2ncc(CN3CCOCC3)n2CC1 | -234.5%
* Cc1nn(C)c(N(C)C)c1CNC1CCOc2c(Cl)cccc21 (stereo not drawn) | -35%
* [H][C@]12CN(Cc3cccc(C#N)c3)CC[C@@]1(O)CCN(S(=O)(=O)N(C)C)C2 | -64.36%
* CC(C)(C)NC(=O)N1CCN2C(=O)OCC2C1 (stereo not drawn) | -30.2%

For reference, 4 entries once more:

| Compound | effect |
|---|---|
| `O=C(c1ccco1)N1CCc2ncc(CN3CCOCC3)n2CC1` | -234.5% |
| `[H][C@@]12CCN(C(=O)Cc3cccc(OC)c3)[C@]1([H])CCC(=O)N2CC` | -32.74% |
| `[H][C@]12CN(Cc3cccc(C#N)c3)CC[C@@]1(O)CCN(S(=O)(=O)N(C)C)C2` | -64.36% |
| `COc1ccccc1C(C)N1CCN(S(C)(=O)=O)CC1` (stereo not drawn) | -18.94% |